# Assay results: the supplement of paper PMC8728848
# Some of the results follow.
# Key:
# Assay in all cases: glycan array binding signal (z-score within array); higher = stronger binding
# Details in all cases: glycan notation: IUPAC condensed, linker removed
# [1] = biological target: GlcNAc(b1-3)Gal(b1-4)GlcNAc(b1-3)Gal(b1-4)GlcNAc(b1-3)GalNAc
# How it was run: (§1)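 Negative Z-scores can be read as non-binding. The Z-score is calculated within each array and then averaged across arrays of one protein sequence at different concentrations or buffers and across linkers. Arrays, 3228 in all, were curated from the Consortium for Functional Glycomics database and kept only where the protein sequence was available.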
# [2] = biological target: GlcNAc(b1-3)Gal(b1-4)GlcNAc(b1-3)GalNAc
# How it was run: as §1
# [3] = biological target: GlcNAc(b1-3)Gal(b1-4)GlcNAc(b1-3)[GlcNAc(b1-3)Gal(b1-4)GlcNAc(b1-3)]GalNAc
# How it was run: as §1
# [4] = biological target: GlcNAc(b1-3)Gal(b1-4)GlcNAc(b1-6)[Gal(b1-3)]GalNAc
# How it was run: as §1
# [5] = biological target: GlcNAc(b1-3)Gal(b1-4)GlcNAc(b1-6)[GlcNAc(b1-3)Gal(b1-3)]GalNAc
# How it was run: as §1
# [6] = biological target: GlcNAc(b1-3)Gal(b1-4)GlcNAc(b1-6)[GlcNAc(b1-3)]Gal(b1-4)GlcNAc
# How it was run: as §1
# [7] = biological target: GlcNAc(b1-3)GalNAc
# How it was run: as §1
# [8] = biological target: GlcNAc(b1-3)Man
# How it was run: as §1
# [9] = biological target: GlcNAc(b1-3)[GlcNAc(b1-4)][GlcNAc(b1-6)]GlcNAc
# How it was run: as §1
# [10] = biological target: GlcNAc(b1-3)[GlcNAc(b1-6)]Gal(b1-4)GlcNAc
# How it was run: as §1
# [11] = biological target: GlcNAc(b1-3)[GlcNAc(b1-6)]GalNAc
# How it was run: as §1
# [12] = biological target: GlcNAc(b1-4)Gal(b1-4)GlcNAc
# How it was run: as §1
# [13] = biological target: GlcNAc(b1-4)GlcNAc
# How it was run: as §1
# [14] = biological target: GlcNAc(b1-4)GlcNAc(b1-4)GlcNAc
# How it was run: as §1
# [15] = biological target: GlcNAc(b1-4)GlcNAc(b1-4)GlcNAc(b1-4)GlcNAc(b1-4)GlcNAc
# How it was run: as §1
# [16] = biological target: GlcNAc(b1-4)GlcNAc(b1-4)GlcNAc(b1-4)GlcNAc(b1-4)GlcNAc(b1-4)GlcNAc
# How it was run: as §1
# [17] = biological target: GlcNAc(b1-4)[GlcNAc(b1-6)]GalNAc
# How it was run: as §1
# [18] = biological target: GlcNAc(b1-6)Gal(b1-4)GlcNAc
# How it was run: as §1
# [19] = biological target: GlcNAc(b1-6)GalNAc
# How it was run: as §1
# [20] = biological target: GlcNAc6S(b1-3)Gal(b1-4)GlcNAc
# How it was run: as §1
# [21] = biological target: Kdn(a2-3)Gal(b1-3)GalNAc
# How it was run: as §1
# [22] = biological target: Kdn(a2-3)Gal(b1-3)GlcNAc
# How it was run: as §1
# [23] = biological target: Kdn(a2-3)Gal(b1-4)Glc
# How it was run: as §1
# [24] = biological target: Kdn(a2-3)Gal(b1-4)GlcNAc
# How it was run: as §1
# [25] = biological target: Kdn(a2-3)Gal(b1-4)[Fuc(a1-3)]GlcNAc
# How it was run: as §1
# [26] = biological target: Kdn(a2-6)Gal(b1-4)GlcNAc
# How it was run: as §1
# [27] = biological target: Man(a1-2)Man(a1-2)Man(a1-3)Man
# How it was run: as §1
# [28] = biological target: Man(a1-2)Man(a1-2)Man(a1-6)[Man(a1-3)]Man
# How it was run: as §1
# [29] = biological target: Man(a1-2)Man(a1-3)Man
# How it was run: as §1
# [30] = biological target: Man(a1-2)Man(a1-3)[Man(a1-2)Man(a1-6)]Man
# How it was run: as §1
# [31] = biological target: Man(a1-2)Man(a1-3)[Man(a1-2)Man(a1-6)]Man(a1-6)[Man(a1-2)Man(a1-2)Man(a1-3)]Man
# How it was run: as §1
# [32] = biological target: Man(a1-2)Man(a1-3)[Man(a1-2)Man(a1-6)]Man(a1-6)[Man(a1-2)Man(a1-2)Man(a1-3)]Man(b1-4)GlcNAc(b1-4)GlcNAc
# How it was run: as §1
# [33] = biological target: Man(a1-2)Man(a1-3)[Man(a1-6)]Man(a1-6)[Man(a1-2)Man(a1-3)]Man(b1-4)GlcNAc(b1-4)GlcNAc
# How it was run: as §1
# [34] = biological target: Man(a1-2)Man(a1-6)[Man(a1-3)]Man(a1-6)[Man(a1-2)Man(a1-2)Man(a1-3)]Man
# How it was run: as §1
# [35] = biological target: Man(a1-2)Man(a1-6)[Man(a1-3)]Man(a1-6)[Man(a1-2)Man(a1-2)Man(a1-3)]Man(b1-4)GlcNAc(b1-4)GlcNAc
# How it was run: as §1
# [36] = biological target: Man(a1-3)[Man(a1-6)]Man
# How it was run: as §1
# [37] = biological target: Man(a1-3)[Man(a1-6)]Man(a1-6)[Man(a1-2)Man(a1-3)]Man(b1-4)GlcNAc(b1-4)GlcNAc
# How it was run: as §1
# [38] = biological target: Man(a1-3)[Man(a1-6)]Man(a1-6)[Man(a1-3)]Man
# How it was run: as §1
# [39] = biological target: Man(a1-3)[Man(a1-6)]Man(a1-6)[Man(a1-3)]Man(b1-4)GlcNAc(b1-4)GlcNAc
# How it was run: as §1
# [40] = biological target: Man(a1-3)[Man(a1-6)]Man(b1-4)GlcNAc(b1-4)GlcNAc
# How it was run: as §1
# [41] = biological target: Man(a1-3)[Man(a1-6)]Man(b1-4)GlcNAc(b1-4)[Fuc(a1-6)]GlcNAc
# How it was run: as §1
# [42] = biological target: Man(a1-6)Man
# How it was run: as §1
# [43] = biological target: Man(b1-4)GlcNAc
# How it was run: as §1
# [44] = biological target: MurNAc(b1-4)GlcNAc
# How it was run: as §1
# [45] = biological target: Neu5Ac(a2-3)Gal
# How it was run: as §1
binder,measurement,setting,value
"Awp3 (Candida glabrata), B4UN32 (protein) MISFVTLLAILGLLSISWADQTVRSVAGDQRVTDPVIVGDNSILDYYGGSNYDFSNNFEIGRGTLYIGKESYFSSFQSAPTDVPNSFHLLIKNTNNLQNNGQFIIENIKRHANQCSNSSIQVFPINFQNDGEFEIISGGVEGRCCLPTSVIAPQNFLNNGKFYYKVLTDTGSIYSGSCMQNVDIGASTTTTVNNNLWEFTGSINAQINGAVSGAAQINLDGSNMFVNANTFSGQVVNLINGGSFLQTSDPLSNIVVINGLGTSDTGVTSIAVKGKGKSFTYNPSSGIVKLTTVEGKTYAYQIGCGYNTKKFITNNDSGASYESADNFFVLTYSEPYSPQTCQLENSSIFSSNFISTSTSSSSSSSSASSLPSSMSSSLPSSLSSSLSSSLSSSMSSSMSSLFIIPPPYTTTRSSGSSIIDTEIVSFYSTTDSPGHTITGTTTTTLYGPHTHSSVSTPSSSSESSTTSNSSIESSSLPHTSVSSTPESSITPSSNTISSSPTSDFSSVQSSSIMESSSVVASSSVINSSSIVDSSSSSASSLPSSMSSSLSSSMSSSLPSSMSSSLSSSLSSSLSSSMSSSMSSLFIIPPPYTTTRSSGSSIIDTEIVSFYSTTDSPGHTITGTTTTTLYGPHTHSSVSTPSSSSESSTTSNSSIESSSLPHTSVSSTPESSITPSSNTISSSPTSDFSSVQSSSIMESSSVVASSSVINSSSIVDSSSSSASSLPSSMPSSLPSSMSSSLSSSMSSSLSSSLSSSLSSSMSSSMSSLFIIPPPYTTTRSSGSSIIDTEIVSFYSTTDSPGHTITGTTTTTLYGPHTHSSVSTPSSSSESSTTSNSSIESSSLPHTSVSSTPESSITPSSNTISSSPTSDFSSVQSSSIMESSSVVASSSATQSSSVINSSSIVDSSSSSASSLPSSMPSSLPSSLSSSLSSSLSSSMSSSMSSLFIIPPPYTTTRSSGSSIIDTEIVSFYSTTDSPGHTITGTTTTTLYESSIYSSSSSTIQESELSNTSRTTMTSNSSVSISSTSSRSSFSNTKSSTIVISQSASLPDSKTDIILSTSSNIGYSSRSLLSDLGTSISDSDIHHSVLHSTESYSSNESGTNPFTSIASLSNFIPESSSHTSTALGSENSVISSDILTTMSHPVATNSGDKPTTPKRSEQVSTTMTSSGPTPDTSSFDTDGMSAYSRPEFTTNSLEVNKSSTSQLGNNKQTFSNLQLESTRPHSENEVDNNTRLLQSIQQSSTYGTNNVNPLSPTGSISIPLTEDGQGDNNNWNSPATNDLCTQISFNLTATTITVTDRITITDSIHDISSEVITSYIYQTIVDQKTVTQTVDGKSLANKMSSIPKPSSRSLIQPQPPVAIELQEGAASTSRVSLVSLFISIILVLL",glycan array binding signal (z-score),[1],0.914
same,glycan array binding signal (z-score),[2],-0.013
same,glycan array binding signal (z-score),[3],0.092
same,glycan array binding signal (z-score),[4],-0.872
same,glycan array binding signal (z-score),[5],-0.034
same,glycan array binding signal (z-score),[6],0.42
same,glycan array binding signal (z-score),[7],-0.483
same,glycan array binding signal (z-score),[8],-0.126
same,glycan array binding signal (z-score),[9],-3.03
same,glycan array binding signal (z-score),[10],0.333
same,glycan array binding signal (z-score),[11],0.423
same,glycan array binding signal (z-score),[12],0.171
same,glycan array binding signal (z-score),[13],0.723
same,glycan array binding signal (z-score),[14],0.304
same,glycan array binding signal (z-score),[15],0.979
same,glycan array binding signal (z-score),[16],-0.143
same,glycan array binding signal (z-score),[17],-0.65
same,glycan array binding signal (z-score),[18],1.14
same,glycan array binding signal (z-score),[19],-0.171
same,glycan array binding signal (z-score),[20],0.783
same,glycan array binding signal (z-score),[21],0.344
same,glycan array binding signal (z-score),[22],-0.574
same,glycan array binding signal (z-score),[23],0.004
same,glycan array binding signal (z-score),[24],-0.204
same,glycan array binding signal (z-score),[25],1.25
same,glycan array binding signal (z-score),[26],-0.476
same,glycan array binding signal (z-score),[27],-0.108
same,glycan array binding signal (z-score),[28],-0.552
same,glycan array binding signal (z-score),[29],0.292
same,glycan array binding signal (z-score),[30],-0.27
same,glycan array binding signal (z-score),[31],-0.686
same,glycan array binding signal (z-score),[32],-0.236
same,glycan array binding signal (z-score),[33],0.584
same,glycan array binding signal (z-score),[34],-0.994
same,glycan array binding signal (z-score),[35],0.117
same,glycan array binding signal (z-score),[36],0.869
same,glycan array binding signal (z-score),[37],0.272
same,glycan array binding signal (z-score),[38],-0.802
same,glycan array binding signal (z-score),[39],-1.04
same,glycan array binding signal (z-score),[40],-0.824
same,glycan array binding signal (z-score),[41],0.048
same,glycan array binding signal (z-score),[42],0.889
same,glycan array binding signal (z-score),[43],0.34
same,glycan array binding signal (z-score),[44],-0.501
same,glycan array binding signal (z-score),[45],-1.36

# Given with bars between the fields: part of the list above.
binder | measurement | setting | value
Awp3 (Candida glabrata), B4UN32 (protein) MISFVTLLAILGLLSISWADQTVRSVAGDQRVTDPVIVGDNSILDYYGGSNYDFSNNFEIGRGTLYIGKESYFSSFQSAPTDVPNSFHLLIKNTNNLQNNGQFIIENIKRHANQCSNSSIQVFPINFQNDGEFEIISGGVEGRCCLPTSVIAPQNFLNNGKFYYKVLTDTGSIYSGSCMQNVDIGASTTTTVNNNLWEFTGSINAQINGAVSGAAQINLDGSNMFVNANTFSGQVVNLINGGSFLQTSDPLSNIVVINGLGTSDTGVTSIAVKGKGKSFTYNPSSGIVKLTTVEGKTYAYQIGCGYNTKKFITNNDSGASYESADNFFVLTYSEPYSPQTCQLENSSIFSSNFISTSTSSSSSSSSASSLPSSMSSSLPSSLSSSLSSSLSSSMSSSMSSLFIIPPPYTTTRSSGSSIIDTEIVSFYSTTDSPGHTITGTTTTTLYGPHTHSSVSTPSSSSESSTTSNSSIESSSLPHTSVSSTPESSITPSSNTISSSPTSDFSSVQSSSIMESSSVVASSSVINSSSIVDSSSSSASSLPSSMSSSLSSSMSSSLPSSMSSSLSSSLSSSLSSSMSSSMSSLFIIPPPYTTTRSSGSSIIDTEIVSFYSTTDSPGHTITGTTTTTLYGPHTHSSVSTPSSSSESSTTSNSSIESSSLPHTSVSSTPESSITPSSNTISSSPTSDFSSVQSSSIMESSSVVASSSVINSSSIVDSSSSSASSLPSSMPSSLPSSMSSSLSSSMSSSLSSSLSSSLSSSMSSSMSSLFIIPPPYTTTRSSGSSIIDTEIVSFYSTTDSPGHTITGTTTTTLYGPHTHSSVSTPSSSSESSTTSNSSIESSSLPHTSVSSTPESSITPSSNTISSSPTSDFSSVQSSSIMESSSVVASSSATQSSSVINSSSIVDSSSSSASSLPSSMPSSLPSSLSSSLSSSLSSSMSSSMSSLFIIPPPYTTTRSSGSSIIDTEIVSFYSTTDSPGHTITGTTTTTLYESSIYSSSSSTIQESELSNTSRTTMTSNSSVSISSTSSRSSFSNTKSSTIVISQSASLPDSKTDIILSTSSNIGYSSRSLLSDLGTSISDSDIHHSVLHSTESYSSNESGTNPFTSIASLSNFIPESSSHTSTALGSENSVISSDILTTMSHPVATNSGDKPTTPKRSEQVSTTMTSSGPTPDTSSFDTDGMSAYSRPEFTTNSLEVNKSSTSQLGNNKQTFSNLQLESTRPHSENEVDNNTRLLQSIQQSSTYGTNNVNPLSPTGSISIPLTEDGQGDNNNWNSPATNDLCTQISFNLTATTITVTDRITITDSIHDISSEVITSYIYQTIVDQKTVTQTVDGKSLANKMSSIPKPSSRSLIQPQPPVAIELQEGAASTSRVSLVSLFISIILVLL | glycan array binding signal (z-score) | [10] | 0.333
same | glycan array binding signal (z-score) | [18] | 1.14
same | glycan array binding signal (z-score) | [44] | -0.501
